We go through 35 molecules from PubChem BioAssay AID1487 (National Center for Advancing Translational Sciences (NCATS), 2009).

The experiment in a line: qHTS Assay for Modulators of Lamin A Splicing. As to conditions: HeLa LMNA splicing GFP/RFP minigene ratio, 48 h. In a few lines:
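S3 HeLa cells stably expressing lamin A-EGFP splicing minigene plus DsRed2, 600 cells/well, 48 h compound exposure at 37C. Laser-scanning cytometry; analysed as GFP (500-530 nm)/RFP (575-640 nm) total intensity ratio; 0.5% DMSO vehicle.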
(In general: Quantitative high-throughput screening tests each substance at several concentrations.)

[1] abbreviates: measured here: RFP viability control channel.
Where [2] appears, read: measured here: GFP splicing reporter channel.

One may read the AC50 as the midpoint of the concentration-response curve, whichever way the signal moves.

Values joined by “and” are separate entries in the source; they are usually repeats but may differ in a detail not shown here. Equal entries are not always repeated. The list shows a part of the results. The main result of the screen is listed elsewhere. These columns were measured beside it and carry no call. Compounds called inactive in the main read-out are mostly missing here. Potencies come from curve fits of mixed quality, noted in brackets.

On to `CCC(=NCc1ccc2c(c1)OCO2)c1c(O)n(C)c(=O)n(C)c1=O`, for which the half-maximal activity concentration (AC50) under setting [1] is 7.94 µM [rising, partial curve].
Take `N#CC(C#N)=Cc1ccc(C=C(C#N)C#N)cc1`: the AC50 under setting [1] is 7.94 µM [falling, partial curve, poor fit].
On to `O=C(N/N=C/c1cccnc1)c1ccc(NC(=O)C(c2ccccc2)c2ccccc2)cc1`, for which the AC50 under setting [1] was 5.62 µM [rising, full curve].
The same measure, in the same setting: then `Cc1cccc(NP(C)(=O)c2nc3c(s2)CCCC3)c1` (stereo not drawn), with 0.0224 µM [falling, full curve, poor fit]; and `CCC(=Nc1ccc(OC)cc1OC)c1c(O)n(C)c(=O)n(C)c1=O`, with 10 µM [rising, partial curve].
As to `COc1cc(OC)c(/C=C2/C(=O)Nc3ccccc32)c(OC)c1`, the AC50 is 3.16 µM [falling, full curve] under setting [2] and 3.98 µM [falling, full curve] under setting [1].
On to `C=Cc1ccc(Cn2c(C(=O)O)c(C=O)c3ccccc32)cc1`, for which the AC50 under setting [1] was 0.282 µM [rising, full curve, poor fit].
Turning to `Cc1cc(C=C2C(=O)NC(=S)NC2=O)c(C)n1-c1ccc2c(c1)OCO2`, the half-maximal activity concentration (AC50) under setting [2] was 15.8 µM [falling, single point] and the half-maximal activity concentration (AC50) under setting [1] was 14.1 µM [falling, single point].
With `O=C1C=CC(=O)c2c1ccc1c2ccc2ccccc21`, the half-maximal activity concentration (AC50) by setting is: under setting [2], 11.2 µM [falling, partial curve]; under setting [1], 5.01 µM [falling, partial curve].
Regarding `CN(C)C(=S)SSC(=S)N(C)C`, the half-maximal activity concentration (AC50) under setting [2] is 1.58 µM [falling, full curve] and the AC50 under setting [1] was 1 µM [falling, full curve].
For the molecule `COc1cccc(NP(=O)(Oc2ccccc2)Oc2ccccc2)c1`, the concentration at half-maximal activity (AC50) under setting [1] is 5.62 µM [rising, single point].
Take `CCC1C(=O)OCC1Cc1cncn1C` (stereo not drawn): the AC50 is 5.62 µM [rising, single point] under setting [2] and 0.282 µM [rising, full curve, poor fit] under setting [1].
As for `C[C@@]1(CO)[C@H](O)CC[C@@]2(C)[C@H]1CC[C@H]1C[C@@H]3C[C@@]12CC[C@]3(O)CO`, the concentration at half-maximal activity (AC50) is 0.316 µM [falling, full curve] under setting [2] and 0.794 µM [rising, full curve] under setting [1].
In the case of `Cn1nc(-c2ccc(OCC(=O)N3CCN(Cc4ccccc4)CC3)cc2)c2ccccc2c1=O`, the half-maximal activity concentration (AC50) by setting is: under setting [2], 2 µM [rising, full curve]; under setting [1], 7.08 µM [rising, partial curve].
`CC1(C(=O)O)C2CCC(O2)C1(C)C(=O)O` (stereo not drawn): the concentration at half-maximal activity (AC50) under setting [2] is 2.51 µM [falling, full curve] and the AC50 under setting [1] was 2.24 µM [falling, full curve].
`O=c1[nH]c(=O)n(CCC2=CCCCC2)c(O)c1/C=N/Nc1ccccc1`: the half-maximal activity concentration (AC50) is, setting by setting: under setting [2], 12.6 µM [rising, single point]; under setting [1], 31.6 µM [rising, single point].
Regarding `C=CCN1C(=O)NC(=O)/C(=C\c2ccc(-c3ccccc3[N+](=O)[O-])o2)C1=O`, the AC50 is 0.562 µM [falling, full curve, poor fit] under setting [2] and 0.316 µM [falling, full curve, poor fit] under setting [1].
`CC(=O)NC1[C@H]([C@H](O)[C@H](O)CO)OC(C(=O)O)=C[C@H]1N=C(N)N` (stereo partly drawn): under setting [1], the concentration at half-maximal activity (AC50) is 0.631 µM [rising, full curve, poor fit].
Still for that read-out and setting: as for `C=CCN1C(=O)/C(=C/c2ccc(N3CCOCC3)o2)C(=O)NC1=S`, the figure is 0.02 µM [falling, full curve]; as for `O=[N+]([O-])c1cc(F)c(N2CCCC2)cc1N1CCNCC1`, 0.794 µM [falling, full curve, poor fit].
With `Cc1nc2ccccc2c(=O)n1-c1ccccc1[N+](=O)[O-]`, under setting [2], the AC50 is 0.0316 µM [rising, full curve, poor fit].
With `CC[C@H]1CN2CCc3cc(OC)c(OC)cc3[C@@H]2C[C@@H]1C[C@H]1NCCc2cc(OC)c(OC)cc21`, the half-maximal activity concentration (AC50) is 15.8 nM [falling, full curve] and 1 µM [falling, full curve] under setting [2]; 0.02 µM [falling, full curve] under setting [1].
For `CCCCn1c(NC(=O)c2ccc(Br)o2)c(C(=O)OCC)c2nc3ccccc3nc21`, under setting [2], the concentration at half-maximal activity (AC50) is 12.6 µM [rising, single point].
In the case of `COc1cc([C@@H]2c3cc4c(cc3[C@H](O)[C@H]3COC(=O)[C@H]23)OCO4)cc(OC)c1OC`, the half-maximal activity concentration (AC50) reads like this: under setting [2], 126 nM [rising, full curve] and 10 µM [falling, partial curve]; under setting [1], 31.6 nM [rising, full curve] and 28.2 nM [rising, full curve].
In the case of `CCCNS(=O)(=O)c1ccc(OCC(=O)N2CCN(Cc3ccccc3)CC2)cc1`, under setting [1], the AC50 is 11.2 µM [rising, single point].
With `CN1CC[C@@]23CCCC[C@@H]2[C@@H]1Cc1ccc(O)cc13`, the AC50 under setting [1] is 35.5 µM [rising, single point].
The same measure, in the same setting: as for `CN=C(NC#N)NCCSCc1nc[nH]c1C`, the figure is 5.01 µM [rising, single point]; as for `Cc1sc(NC(=O)Cn2c(=O)oc3ccccc32)nc1-c1ccc(Cl)cc1`, 7.94 µM [rising, partial curve].
Regarding `N#Cc1ccc(Cn2cc(C(=O)c3ccco3)c3ccccc32)cc1`, the AC50 under setting [2] was 35.5 µM [rising, single point] and the AC50 under setting [1] was 35.5 µM [rising, single point].
Consider `CCOC(=O)CNC(=O)CNC(=O)C(Cc1ccc(N(CCCl)CCCl)cc1)NC(C)=O` (stereo not drawn), for which the half-maximal activity concentration (AC50) under setting [2] was 35.5 µM [falling, partial curve, poor fit].
For `CCNC(C)Cc1cccc(C(F)(F)F)c1` (stereo not drawn), under setting [2], the AC50 was 35.5 µM [falling, single point].
For the molecule `Cc1ccc(C(=O)NC2CCN(S(=O)(=O)c3ccc(C)cc3)CC2)cc1`, the concentration at half-maximal activity (AC50) under setting [1] was 35.5 µM [falling, partial curve, poor fit].
For `COCCOC(=O)c1c(C)oc2ccc(OC(=O)N(C)C)cc12`, the half-maximal activity concentration (AC50) under setting [1] was 0.141 µM [falling, full curve, poor fit].
As to `O=C(Cn1cnc2ccccc2c1=O)NCCC(=O)N1CCC2(CC1)OCCO2`, the half-maximal activity concentration (AC50) under setting [2] is 4.47 µM [rising, partial curve].
As to `CS(=N)(=O)CC[C@H](N)C(=O)O` (stereo partly drawn), under setting [2], the AC50 was 35.5 µM [rising, partial curve, poor fit].
